Measurements as given in the supplement of paper PMC5407854, “Inhibitor of ppGalNAc-T3-mediated O-glycosylation blocks cancer cell invasiveness and lowers FGF23 levels” (eLife, 2017).
This is one part of the list. Most values lie at the level of the controls, where differences are scatter.

The compounds below were run on ppGalNAc-T3 sensor (assay: T3 sensor activation Q score (MG/GFP ratio z-score vs DMSO controls) (SD units); higher = more sensor activation (inhibition of ppGalNAc-T3 glycosylation)). Conditions: HEK293 sensor cells; 10 µM; 6 h.
Description: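 Cells were treated with compound at 10 uM for 6 h, then MG/GFP ratio was read by flow cytometry (10,000 cells per well, duplicate wells). Q = (R - R_neg)/SD_neg relative to DMSO vehicle controls; the signal rises when the glycosyltransferase is inhibited.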

| SMILES | T3 sensor activation Q score |
| --- | --- |
| COc1cc(OC)c(CN2CCCN(C)CC2)cc1Br | -0.33 |
| COc1ccc(C2NC(=O)N(C)C(C)=C2[N+](=O)[O-])cc1 (stereo not given) | 0.23 |
| CCc1ccccc1NC(=O)C1CCCCC1C(=O)O (stereo not given) | 0.355 |
| CCN(CC)CCN(C)Cc1ccccc1F | 0.315 |
| C=CCSc1nc(O)c(CC)c(=O)n1-c1ccccc1 | -0.3 |
| CCc1nc(C)cc([N+](=O)[O-])c1O | 0.95 |
| COc1ccccc1CNC(=O)CCc1ccccc1 | 0.765 |
| COc1ccc(C(=O)N2CCN(C(=O)c3ccco3)CC2)cc1 | 0.71 |
| NNC(=O)CCc1ccccc1O | -0.465 |
| CC1CCN(S(=O)(=O)c2ccc(Br)c(C(=O)O)c2)CC1 | 0.44 |
| CCN(CC)C(=O)C1CCCN(Cc2ccc(F)c(F)c2)C1 (stereo not given) | 0.3 |
| c1ccc(-c2nnn(C34CC5CC(CC(C5)C3)C4)n2)cc1 | -0.035 |
| COc1ccccc1N1CCN(Cc2ccc(OC)c(C)c2OC)CC1 | 0.33 |
| CC(C)(C)n1ncc(O)c(Cl)c1=O | -0.475 |
| COc1ccc(CCC(C)Nc2ccc(F)cc2)cc1 (stereo not given) | -0.335 |
| Cc1nc2sc(-c3ccccc3)nn2c(=O)c1Br | -0.065 |
| CC(=O)c1ccc(N2CCN(Cc3ccc(N(C)C)cc3)CC2)cc1 | -0.125 |
| O=c1[nH]c2cccnc2n1-c1ccccc1 | -0.33 |
| CCN(C(=O)CCc1ccccc1)c1ccccc1 | -1.19 |
| COc1cc(CO)c(C2(C(=O)O)CCCC2)cc1OC | 0.365 |

| SMILES | T3 sensor activation Q score |
| --- | --- |
| CC1(C)Cc2ccccc2-c2nc3n(c(=O)c21)CCS3 | -0.33 |
| CCc1nc(C)cc(CN(C)C)c1O | 0.265 |
| Cc1cccc(N2C(=O)CC(N3CCN(C)CC3)C2=O)c1 (stereo not given) | 0.41 |
| COc1ccccc1N1CCN(C(=O)c2cccc(C)c2)CC1 | 0.205 |
| Cc1ccc(NC2CC(=O)N(c3cccc(Cl)c3)C2=O)cc1 (stereo not given) | 0.29 |
| c1csc(-c2cnc3ccccc3n2)c1 | 1.2 |
| COc1ccccc1C(=O)Nc1ccc2oc(-c3ccccc3C)nc2c1 | -0.78 |
| O=C(c1ccc(Br)cc1)N1CCN(c2ccc([N+](=O)[O-])cc2)CC1 | -0.19 |
| CCC1CCCCN1S(=O)(=O)c1ccc(C)c(C)c1 (stereo not given) | -0.905 |
| Cc1cc(OCC(=O)NN)ccc1Cl | -0.335 |
| Cc1ccc(Oc2ccc(-c3nc(N)nc(N)n3)cc2)cc1 | 0.63 |
| CCC(=O)Nc1nc2ccccc2n1CCN1CCOCC1 | -0.04 |
| O=C(C1CCN(S(=O)(=O)c2ccccc2)CC1)N1CCN(Cc2ccccc2)CC1 | -0.45 |
| CC1(C)CC(=O)C2=C(C1)Nc1ccccc1NC2c1cccc([N+](=O)[O-])c1 (stereo not given) | 0.105 |
| CCOc1cc(CN2CCN(c3ccccc3OC)CC2)ccc1OC | 0.52 |
| CCOc1ccc(CN2CCSCC2)cc1 | 0.71 |
| O=[N+]([O-])c1ccc(CN2CCN(C/C=C/c3ccccc3)CC2)cc1 | 0.325 |
| O=CN1N=C(c2ccccc2)CC1c1ccccc1 (stereo not given) | 0.57 |
| CCOc1ccccc1CN1CCc2ccccc2C1 | 0.34 |
| Cc1cc(Br)ccc1NC(=O)CCc1ccccc1 | -1.03 |

2 compounds picked at random from those above:

| SMILES | T3 sensor activation Q score |
| --- | --- |
| CCOc1cc(CN2CCN(c3ccccc3OC)CC2)ccc1OC | 0.52 |
| COc1ccccc1N1CCN(C(=O)c2cccc(C)c2)CC1 | 0.205 |
